Experimental findings from paper PMC12457637, “An aptamer-drug conjugate for promising cancer therapy with comprehensive evaluation from rodents to non-human primates” (Signal Transduction and Targeted Therapy, 2025) are described below.

Construct, isoform or probe ends are uncertain for at least one entry.

The data set has as its system PTK7 (cynomolgus monkey). As to the kind of experiment: SPR. Conditions: 5 mM Mg2+, Kd only in figure, SPR (Biacore 8K, CM5): DPBS + 5 mM MgCl2, 10 uL/min, 180 s association and dissociation, temperature and pH of running buffer not stated, commercial protein, protein details: His, folded or branched DNA. In general terms: In SPR one partner is held on a chip, and binding of the other changes the refractive index at the surface.

For the sequence “ATCTAACTGCTGCGCCGCCGGGAAAATACTGTACGGTTAGA [Sgc8c-M]”, the binding result (400 nM, 3'-C6-S-maleimide MC-VC-PAB-MMAE conjugate) was “binds”.
“ATCTAACTGCTGCGCCGCCGGGAAAATACTGTACGGTTAGA [Sgc8c]”: the binding result is “binds”.
